The exact form of at least one protein or probe is not confirmed. Results from cells or extracts need not show a direct contact.

Amino acid sequences for entries named in this document (tags omitted). A change or cut given only in a name is not applied to a line headed by its entry.
UniProt Q01860: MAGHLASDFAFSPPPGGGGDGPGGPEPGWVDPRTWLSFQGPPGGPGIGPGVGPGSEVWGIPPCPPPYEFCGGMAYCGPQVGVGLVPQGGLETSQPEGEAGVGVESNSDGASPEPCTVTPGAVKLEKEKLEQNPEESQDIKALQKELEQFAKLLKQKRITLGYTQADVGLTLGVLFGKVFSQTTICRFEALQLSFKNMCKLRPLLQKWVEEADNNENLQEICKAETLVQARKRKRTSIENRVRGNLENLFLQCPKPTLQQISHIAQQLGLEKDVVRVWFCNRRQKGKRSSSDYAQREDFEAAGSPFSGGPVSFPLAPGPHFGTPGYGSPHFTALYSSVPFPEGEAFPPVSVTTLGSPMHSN

Experimental findings from PMC12990707, “Multiple novel hepatocellular carcinoma signature genes are commonly controlled by the master pluripotency factor OCT4” are described below.

This data set concerns the target OCT4 (endogenous) (UniProt Q01860). Nature of the data set: EMSA. The following applies: Huh7 NTC vs OCT4-KO nuclear extract, OCT4 with unnamed partners; LightShift chemiluminescent EMSA kit (Thermo 20148) per manufacturer; pH and temperature not stated; protein in an extract; label: 5' biotin on both strands. On the technique in general: Mobility shift assays separate free from complexed probe on a gel.

For the sequence “GGGAATTACCTGCGTTTTCACTGACATGCATCTCTCTTACCAGTCTGACCCAGATGGGG (double strand) [TRIP13 probe]”, the binding result is recorded as “binds”.
